## Primary screen of a compound library

The chains behind the UniProt entries cited, without tags or fusion partners. Residues count along the entry.
UniProt I6X8D2, whole entry: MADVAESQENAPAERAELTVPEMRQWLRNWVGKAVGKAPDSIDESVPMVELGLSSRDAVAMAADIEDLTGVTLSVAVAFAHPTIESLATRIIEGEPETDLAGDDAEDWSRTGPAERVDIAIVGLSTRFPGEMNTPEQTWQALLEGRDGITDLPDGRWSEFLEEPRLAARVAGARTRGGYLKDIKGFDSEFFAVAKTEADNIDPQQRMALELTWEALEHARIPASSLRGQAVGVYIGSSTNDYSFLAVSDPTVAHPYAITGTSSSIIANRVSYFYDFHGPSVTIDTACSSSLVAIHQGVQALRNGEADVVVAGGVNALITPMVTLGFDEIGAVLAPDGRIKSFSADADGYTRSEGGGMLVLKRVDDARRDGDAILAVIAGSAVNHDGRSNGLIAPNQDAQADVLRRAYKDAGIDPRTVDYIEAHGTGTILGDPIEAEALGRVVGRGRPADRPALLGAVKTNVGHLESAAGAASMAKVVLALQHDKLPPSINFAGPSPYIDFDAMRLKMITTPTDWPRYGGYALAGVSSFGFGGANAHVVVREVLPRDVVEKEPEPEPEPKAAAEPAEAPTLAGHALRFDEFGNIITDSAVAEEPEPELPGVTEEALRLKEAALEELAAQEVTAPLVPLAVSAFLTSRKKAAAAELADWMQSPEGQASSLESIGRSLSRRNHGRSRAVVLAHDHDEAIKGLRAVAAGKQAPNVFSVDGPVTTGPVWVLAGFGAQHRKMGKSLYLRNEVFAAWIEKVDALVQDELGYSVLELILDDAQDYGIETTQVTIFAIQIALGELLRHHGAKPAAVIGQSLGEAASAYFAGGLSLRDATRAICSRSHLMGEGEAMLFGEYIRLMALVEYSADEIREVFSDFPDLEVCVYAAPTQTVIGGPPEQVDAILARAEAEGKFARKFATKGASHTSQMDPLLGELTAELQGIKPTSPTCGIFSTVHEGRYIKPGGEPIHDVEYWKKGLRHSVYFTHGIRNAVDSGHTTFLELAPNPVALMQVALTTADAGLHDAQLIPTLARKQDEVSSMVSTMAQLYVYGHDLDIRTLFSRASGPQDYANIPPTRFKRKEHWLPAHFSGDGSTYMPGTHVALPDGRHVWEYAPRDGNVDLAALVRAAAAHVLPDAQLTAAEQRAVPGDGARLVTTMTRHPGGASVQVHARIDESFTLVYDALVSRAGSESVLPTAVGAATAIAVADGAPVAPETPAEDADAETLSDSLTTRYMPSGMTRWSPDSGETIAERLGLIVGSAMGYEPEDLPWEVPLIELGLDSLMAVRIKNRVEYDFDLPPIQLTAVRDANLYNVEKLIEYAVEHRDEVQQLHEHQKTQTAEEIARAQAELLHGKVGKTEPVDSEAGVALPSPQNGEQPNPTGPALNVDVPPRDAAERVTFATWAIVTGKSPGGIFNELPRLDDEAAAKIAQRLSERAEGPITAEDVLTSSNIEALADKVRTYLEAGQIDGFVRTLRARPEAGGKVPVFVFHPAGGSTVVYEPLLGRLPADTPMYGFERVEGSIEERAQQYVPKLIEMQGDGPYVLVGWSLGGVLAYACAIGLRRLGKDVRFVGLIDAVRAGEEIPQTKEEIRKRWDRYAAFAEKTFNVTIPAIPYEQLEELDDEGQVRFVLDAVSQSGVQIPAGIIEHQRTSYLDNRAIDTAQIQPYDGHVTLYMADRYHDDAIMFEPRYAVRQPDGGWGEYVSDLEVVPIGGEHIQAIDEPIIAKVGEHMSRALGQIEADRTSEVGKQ
UniProt Q8IDJ8, 1-583: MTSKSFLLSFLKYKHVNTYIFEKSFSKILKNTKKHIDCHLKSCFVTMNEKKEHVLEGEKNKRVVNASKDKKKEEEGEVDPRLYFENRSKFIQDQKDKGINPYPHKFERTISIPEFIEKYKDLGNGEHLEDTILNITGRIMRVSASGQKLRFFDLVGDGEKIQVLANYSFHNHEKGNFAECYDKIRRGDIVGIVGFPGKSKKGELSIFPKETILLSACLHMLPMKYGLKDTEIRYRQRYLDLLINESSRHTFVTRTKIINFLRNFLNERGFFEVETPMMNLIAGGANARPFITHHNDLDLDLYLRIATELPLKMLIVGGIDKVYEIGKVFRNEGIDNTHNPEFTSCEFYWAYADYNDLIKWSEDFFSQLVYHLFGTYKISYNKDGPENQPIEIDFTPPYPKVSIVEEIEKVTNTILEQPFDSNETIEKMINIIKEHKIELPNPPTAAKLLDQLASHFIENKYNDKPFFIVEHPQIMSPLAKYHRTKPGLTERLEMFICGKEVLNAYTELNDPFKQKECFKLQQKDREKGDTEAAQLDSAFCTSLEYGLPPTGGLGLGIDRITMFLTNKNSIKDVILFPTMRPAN
UniProt A4I591, 1-473: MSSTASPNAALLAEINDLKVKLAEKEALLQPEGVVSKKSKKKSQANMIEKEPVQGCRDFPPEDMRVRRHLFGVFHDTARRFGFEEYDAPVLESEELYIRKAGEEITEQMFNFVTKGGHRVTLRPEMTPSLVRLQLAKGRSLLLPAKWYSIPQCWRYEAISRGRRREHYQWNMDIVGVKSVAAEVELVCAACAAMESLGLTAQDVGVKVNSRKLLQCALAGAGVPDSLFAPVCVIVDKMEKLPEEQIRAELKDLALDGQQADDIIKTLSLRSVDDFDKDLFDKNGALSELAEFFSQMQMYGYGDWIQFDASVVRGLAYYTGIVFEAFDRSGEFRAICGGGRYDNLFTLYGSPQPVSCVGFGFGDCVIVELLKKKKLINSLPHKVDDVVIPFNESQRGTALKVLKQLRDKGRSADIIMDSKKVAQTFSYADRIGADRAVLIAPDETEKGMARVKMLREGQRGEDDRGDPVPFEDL
UniProt P9WFT3, whole entry: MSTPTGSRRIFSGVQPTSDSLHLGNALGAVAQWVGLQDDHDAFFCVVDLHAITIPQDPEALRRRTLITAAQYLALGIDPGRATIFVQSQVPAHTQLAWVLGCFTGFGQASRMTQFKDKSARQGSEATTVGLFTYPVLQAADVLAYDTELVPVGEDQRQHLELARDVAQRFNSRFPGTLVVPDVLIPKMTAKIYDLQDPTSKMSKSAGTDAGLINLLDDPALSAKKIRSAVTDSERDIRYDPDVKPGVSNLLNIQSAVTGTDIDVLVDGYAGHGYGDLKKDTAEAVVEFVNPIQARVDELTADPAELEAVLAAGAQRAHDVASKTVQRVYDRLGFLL

Source: ChEMBL document CHEMBL3988442, “University of Dundee, Small-Polar-MMV Screening Library” (2021).

Each number is a percent effect as filed.
How 0% and 100% were set is not recorded. Most values in the screen are low, and negative values occur.
The compounds are a random part of those screened.
A dash means the value is not listed here; it may have been measured.

A: 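Enzyme assay of the thioesterase domain of polyketide synthase 13; the read-out is not stated. Target: Polyketide synthase Pks13, Mycobacterium tuberculosis (UniProt I6X8D2). Compounds at 30 µM. Higher reads as stronger inhibition (inferred from which compounds were picked for retests). About 67,000 compounds were tested under these conditions; 0.46% (about 300) showed 50% or more at least once.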
B: 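Lysine-tRNA ligase, Plasmodium falciparum 3D7 (UniProt Q8IDJ8). Enzyme assay of the cytosolic lysyl-tRNA synthetase in 384-well plates, read by luminescence. Concentration: 30 µM. Direction is inferred from only a few compounds that gave an IC50; most scored high, so higher reads as stronger inhibition. Size under these conditions: about 69,000 compounds, about 49 of them at 50% or above in at least one test.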
C: 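Histidine-tRNA ligase, Leishmania infantum (UniProt A4I591). Enzyme assay of histidyl-tRNA synthetase; the read-out is not stated. Compounds at 30 µM. Direction is inferred from retests: higher values go with stronger inhibition. The assay is labelled LdHisRS but filed under L. infantum. About 69,000 compounds were tested under these conditions; 0.6% (about 410) showed 50% or more at least once.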
D: 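Tryptophan-tRNA ligase, Mycobacterium tuberculosis (UniProt P9WFT3). Enzyme assay of tryptophanyl-tRNA synthetase; the read-out is not stated. Tested at 10 µM. Direction is not recorded; retested compounds ran higher, which suggests that high means inhibition. About 65,000 compounds were tested under these conditions; 0.098% (about 64) showed 50% or more at least once.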

| structure | A | B | C | D |
|---|---|---|---|---|
| `O=C([C@H]1C[C@@H]2CCN(C3CCOCC3)C[C@@H]2O1)N1CCOCC1` | -1.829 | 2.682 | 7.547 | -3.253 |
| `CC(C)c1cc(N(C)Cc2cc(C3CC3)on2)n2nccc2n1` | -7.11 | 6.09 | 11.48 | -0.4831 |
| `CCc1cc(N[C@@H]2CC[C@@H](N)C2)n2nc(C)c(C)c2n1` | -9.575 | 2.336 | 40.74 | 4.71 |
| `CCSc1nnc(N2CCN(c3ccccc3)CC2)s1` | -2.576 | 8.091 | 11.86 | -2.76 |
| `Cc1nn(C)c(N(C)C)c1CNCc1ccc2c(c1)OCO2` | -20.21 | -2.011 | 13.16 | 2.18 |
| `CC(C)C(=O)N1CCC(n2nc(-c3ccco3)ccc2=O)CC1` | 0.6016 | -1.303 | 9.375 | - |
| `CCOC(=O)C1CC2(CCCC2)N2CCC(=O)N12` (stereo not drawn) | -0.1747 | 4.372 | 4.082 | - |
| `COc1ccc(CNC(=O)CCc2nnc3ccccn3c2=O)cc1` | -4.756 | 1.007 | 18.68 | 6.019 |
| `Cn1ccnc1CN1CCCN(C(=O)COC2CCCC2)CC1` | 8.292 | 0.3969 | 16.52 | -8.307 |
| `Cc1ccc(CN2C[C@@H]3CCCO[C@@H]3[C@H](N(C)Cc3ccco3)C2)o1` | -24.65 | 5.003 | 18.18 | -1.918 |
| `CS(=O)(=O)NCc1noc2c1CN(C(=O)C1CC1)CC2` | -9.463 | 2.22 | 0 | - |
| `O=C(Cc1c(F)cccc1Cl)Nc1cc(N2CCCC2)ncn1` | -1.969 | 7.029 | 12 | 1.34 |
| `Cc1ccc(N2N=C(C(=O)N(C)Cc3ccco3)NCC2=O)cc1` | -9.247 | 0.4676 | 16.67 | 8.252 |
| `O=C(CN(Cc1ccco1)C1CC1)N1CCCCCC1` | 2.545 | 0.3251 | 18.58 | -2.382 |
| `CC(C)c1nc(CN2CCCC(Cn3cncn3)C2)cs1` (stereo not drawn) | -7.285 | -2.971 | 7.895 | 61.3 |
| `CC(C)NC(=O)C1CN(C(=O)c2cccs2)CC12CCOCC2` (stereo not drawn) | - | 0.9367 | 27.78 | 4.182 |
| `Cc1nc(-c2cccc(C(=O)N(C)CC(C)O)c2)cs1` (stereo not drawn) | -43.57 | 5.783 | 8.621 | -3.067 |
| `Cc1ccc(CN(C)Cc2cnc(N3CCOCC3)s2)o1` | -20.85 | -2.957 | 11.19 | 15.51 |
| `Cc1cccc(C(=O)N2C[C@@H]3OCCN(CCN4CCCC4)[C@@H]3C2)n1` | -10.22 | 2.082 | 16 | -2.033 |
| `Cc1nnc(CN(C)CCOc2cccc(Cl)c2)o1` | -13.67 | 1.421 | 12.28 | -1.574 |
| `CC(C)N(CC(N)=O)Cc1cccc(Br)c1` | -9.802 | 10.98 | 6.494 | 4.907 |
| `Cn1cc(C(=O)N2CC[C@@H]3[C@@H]2CCN3Cc2ccccc2)cn1` | -2.208 | -0.8007 | 21 | -3.412 |
| `Cc1cnc(C(=O)N2CCCC(c3nccn3Cc3cscn3)C2)cn1` (stereo not drawn) | -14.14 | 11.7 | 16.8 | -0.07246 |
| `Cc1c(-c2ccccc2)nc2c(c(C)c(C)n2CCN(C)C)c1N` | -16.21 | 0.2232 | 14.61 | -1.214 |
| `CN(C(=O)Cc1ccn(C)c1)C1CCCN(C2Cc3ccccc3C2)C1` (stereo not drawn) | 5.169 | -1.091 | 15.2 | 0.07246 |
| `Cn1c(CCCNc2nccnc2C#N)nc2ccccc21` | -17.31 | 2.186 | 21.92 | -0.8942 |
| `c1ccc(CCN2CCCC2c2ccnc(Nc3cnccn3)n2)cc1` (stereo not drawn) | 25.2 | 0.3509 | 17.02 | -7.728 |
| `Cc1ccc2c(c1)C(N1CCOCC1)CC21CCNCC1` (stereo not drawn) | -22.95 | -1.313 | 6 | -1.063 |
| `CC(C(=O)N1CCCCC1)N1CCN(c2ncc(Cl)cn2)CC1` (stereo not drawn) | -34.56 | 0.2236 | 7.254 | -0.5113 |
| `CC(C)N(C)Cc1cc(=O)n2c(n1)CN(S(=O)(=O)C1CC1)CCC2` | -3.918 | 3.119 | 3.846 | - |
| `CNC(=O)N1CC[C@@H]2CN(Cc3cccc(OC)c3)S(=O)(=O)[C@@H]2CC1` | -16.2 | 4.483 | 8.182 | - |
| `COC(=O)c1cccc(S(=O)(=O)NC(=O)c2cccc(OC)c2OC)c1` | -42.16 | -0.6896 | 12.04 | -1.638 |
| `CN1CCOC(CNC(=O)C2(c3cccc(Cl)c3)CC2)C1` (stereo not drawn) | -14.61 | 5.425 | 10.62 | 0.2867 |
| `Cc1cc(-c2nn(C)c(Cl)c2CN2Cc3ccccc3C(O)C2)no1` (stereo not drawn) | -37.21 | 27.35 | 66.67 | 4.595 |
| `CCOCC(=O)N(C)c1ccc(F)c(Cl)c1` | - | -1.576 | 12.68 | -5.405 |
| `Cc1cnccc1CN(C)C(=O)c1ccc(Cn2cnnn2)cc1` | -7.822 | -2.112 | 6.78 | -4.022 |
| `O=C(O)c1ncccc1N1CCCCC1` | -19.35 | 5.708 | 18.75 | 0.4289 |
| `Cn1c(C(F)(F)F)nn(CCNC(=O)CCc2ccccc2)c1=O` | -28.74 | 2.444 | -4.959 | 2.502 |
| `CC(C)(C)CC(=O)N1CC[C@@H]2[C@H](CC1)N(S(C)(=O)=O)CCS2(=O)=O` | -9.418 | 7.43 | 15.38 | 0.1876 |
| `Cc1cc(C(F)(F)F)nn1CCCNC(=O)C1CCC1` | -14.68 | 8 | 10.11 | 0.7282 |
| `Cc1cc(C(=O)N2CC(O)CO2)c2cccc(C)c2n1` (stereo not drawn) | -12.87 | 3.409 | 14.29 | 0.4619 |
| `CC(C)N(C)C(=O)C1CCN(Cc2cnc3ccccn23)CC1` | -21.86 | 4.383 | 1.036 | -1.738 |
| `CCOc1ccc(C#N)cc1NC(=O)N1CCC(n2cncn2)CC1` | -21.07 | -1.546 | 8.861 | 1.493 |
| `COCC(=O)NC(C)Cc1ccc(Br)cc1` (stereo not drawn) | -9.533 | 3.032 | 14.29 | -4.583 |
| `O=C(NCCCc1nc(=O)[nH][nH]1)Nc1ccc(Cl)cc1` | -32.11 | 3.685 | 18.42 | -1.471 |
| `Cc1ncc2c(n1)CN(Cc1nc(Cc3ccccc3)no1)CC2` | -7.361 | -0.8043 | 40.37 | 3.58 |
| `CCC(=O)N1CCC(Cc2ccccc2-c2ccncc2)(C(N)=O)C1` (stereo not drawn) | -2.378 | -0.5857 | 14 | - |
| `CCc1nc2c(c(NCc3cc(-c4cccnc4)no3)n1)CCNCC2` | - | 0.8277 | 8.602 | 6.338 |
| `COc1cccc(OCCNS(C)(=O)=O)c1` | -0.2273 | 0.9293 | 8.163 | -2.349 |
| `Cc1nc(C)c(C(=O)N2CCCC(C(=O)c3nccn3C)C2)s1` (stereo not drawn) | 4.653 | 5.687 | 9.735 | -2.596 |
| `CCCOCC(=O)NS(=O)(=O)c1ccc2c(c1)OCCCO2` | -5.928 | -1.053 | 1.515 | -0.2924 |
| `CC(=O)c1c(F)cccc1NC1CCN(C(=O)C2CCCCC2)CC1` | -53.78 | -3.275 | -15.62 | 0.5623 |
| `COc1ccsc1C(=O)N1CCCC(n2nc(C)cc2C)C1` (stereo not drawn) | -7.897 | 1.368 | 1.695 | 0.9169 |
| `Cn1cc(CN2CCC[C@]3(C[C@H](Oc4ccccn4)CO3)C2)cn1` | -6.222 | 2.433 | 11.54 | - |
| `CCOc1ccc(N2CCCN=C2NC(=O)c2ccccc2C)cc1` | -9.078 | 0.8974 | 14.15 | -1.408 |
| `Cc1c(CN(C)C(=O)c2ccnn2C)cnn1C` | -0.6306 | -3.429 | 1.235 | -1.528 |
| `O=C(NCCn1cccc1)C(c1ccccc1)N1CCCC1` (stereo not drawn) | 14.25 | 6.017 | 13.86 | - |
| `O=C1Nc2ccccc2CC12CCCN2Cc1ccc(C(F)(F)F)cc1` (stereo not drawn) | -23.73 | 4.622 | 12.41 | -1.296 |
| `O=C(CCC1CCCN(C(=O)CCN2CCCCO2)C1)N1CCCC1` (stereo not drawn) | 0.2507 | -2.27 | 10.85 | 0.5747 |
| `COCCNc1nnc(-c2ccccn2)s1` | 5.864 | 3.387 | 7.092 | 2.264 |
| `Cc1ncsc1CN1CCOC(C)(C(=O)N(C)C)C1` (stereo not drawn) | -1.942 | -1.642 | 5.634 | 7.269 |
| `CC(C)(C)c1noc(CN2CCCN(Cc3cccs3)CC2)n1` | -4.399 | 2.052 | 19.18 | -1.199 |
| `COc1cc(C(F)(F)F)sc1C(=O)O` | -8.344 | 3.384 | 7.143 | 3.456 |
| `OC(CN1CCN(Cc2ccccc2)CC1)C1CC1` (stereo not drawn) | -7.222 | 4.374 | 13.22 | -1.251 |
| `CN(C)C(=O)C1SCCc2ccccc21` (stereo not drawn) | -30.09 | 8.003 | 9.091 | 2.882 |
| `CCc1nnc2n1CCN(C(=O)CN(C)C1CC1)C2` | -16.94 | 1.236 | 11.61 | 15.63 |
| `CSc1nc(C2CC2)nc(C)c1C(=O)NCc1ncc(C)o1` | -20.72 | 3.709 | 21.51 | 5.641 |
| `c1cc(CNCCc2cn3ccccc3n2)c2c(c1)OCCCO2` | -9.84 | 1.185 | 12.09 | 4.465 |

7 of the entries, repeated:

- Cc1nn(C)c(N(C)C)c1CNCc1ccc2c(c1)OCO2 : A: -20.21%; B: -2.011%; C: 13.16%; D: 2.18%
- CC(C)(C)CC(=O)N1CC[C@@H]2[C@H](CC1)N(S(C)(=O)=O)CCS2(=O)=O : A: -9.418%; B: 7.43%; C: 15.38%; D: 0.1876%
- CCCOCC(=O)NS(=O)(=O)c1ccc2c(c1)OCCCO2 : A: -5.928%; B: -1.053%; C: 1.515%; D: -0.2924%
- CCc1nnc2n1CCN(C(=O)CN(C)C1CC1)C2 : A: -16.94%; B: 1.236%; C: 11.61%; D: 15.63%
- OC(CN1CCN(Cc2ccccc2)CC1)C1CC1 (stereo not drawn) : A: -7.222%; B: 4.374%; C: 13.22%; D: -1.251%
- CC(C(=O)N1CCCCC1)N1CCN(c2ncc(Cl)cn2)CC1 (stereo not drawn) : A: -34.56%; B: 0.2236%; C: 7.254%; D: -0.5113%
- Cn1cc(CN2CCC[C@]3(C[C@H](Oc4ccccn4)CO3)C2)cn1 : A: -6.222%; B: 2.433%; C: 11.54%